Laboratory results reported in US4894340A, “Microbial sulfhydryl oxidase and method” (priority 1987, dated 1990).

Assay: Fluorometric analysis of flavins
Format: physicochemical
Conditions: fluorescence at pH 7.7 over pH 2.6

| SMILES | Fbase /Facid |
| --- | --- |
| Cc1cc2nc3c(=O)[nH]c(=O)nc-3n(C[C@H](O)[C@H](O)[C@H](O)COP(=O)(O)OP(=O)(O)OC[C@H]3O[C@@H](n4cnc5c(N)ncnc54)[C@H](O)[C@@H]3O)c2cc1C [Authentic FAD, flavin adenine dinucleotide] | 0.23 |
| Cc1cc2nc3c(=O)[nH]c(=O)nc-3n(C[C@H](O)[C@H](O)[C@H](O)COP(=O)(O)O)c2cc1C [Authentic FMN, flavin mononucleotide] | 1.38 |
